Experimental data published in the supplement of paper PMC10849652.
The list shows a part of the results.

Amino acid sequences for entries named in this document (tags omitted). A change or cut given only in a name is not applied to a line headed by its entry.
UniProt Q70Z53: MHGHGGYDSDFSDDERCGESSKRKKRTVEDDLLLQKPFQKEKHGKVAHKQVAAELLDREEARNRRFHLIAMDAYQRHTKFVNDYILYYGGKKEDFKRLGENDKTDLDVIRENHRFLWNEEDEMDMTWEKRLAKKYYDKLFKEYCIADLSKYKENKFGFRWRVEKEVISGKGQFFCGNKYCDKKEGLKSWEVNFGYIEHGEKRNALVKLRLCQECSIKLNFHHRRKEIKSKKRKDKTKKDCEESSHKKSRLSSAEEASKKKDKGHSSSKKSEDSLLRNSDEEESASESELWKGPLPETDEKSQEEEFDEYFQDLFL
UniProt Q5TBA9: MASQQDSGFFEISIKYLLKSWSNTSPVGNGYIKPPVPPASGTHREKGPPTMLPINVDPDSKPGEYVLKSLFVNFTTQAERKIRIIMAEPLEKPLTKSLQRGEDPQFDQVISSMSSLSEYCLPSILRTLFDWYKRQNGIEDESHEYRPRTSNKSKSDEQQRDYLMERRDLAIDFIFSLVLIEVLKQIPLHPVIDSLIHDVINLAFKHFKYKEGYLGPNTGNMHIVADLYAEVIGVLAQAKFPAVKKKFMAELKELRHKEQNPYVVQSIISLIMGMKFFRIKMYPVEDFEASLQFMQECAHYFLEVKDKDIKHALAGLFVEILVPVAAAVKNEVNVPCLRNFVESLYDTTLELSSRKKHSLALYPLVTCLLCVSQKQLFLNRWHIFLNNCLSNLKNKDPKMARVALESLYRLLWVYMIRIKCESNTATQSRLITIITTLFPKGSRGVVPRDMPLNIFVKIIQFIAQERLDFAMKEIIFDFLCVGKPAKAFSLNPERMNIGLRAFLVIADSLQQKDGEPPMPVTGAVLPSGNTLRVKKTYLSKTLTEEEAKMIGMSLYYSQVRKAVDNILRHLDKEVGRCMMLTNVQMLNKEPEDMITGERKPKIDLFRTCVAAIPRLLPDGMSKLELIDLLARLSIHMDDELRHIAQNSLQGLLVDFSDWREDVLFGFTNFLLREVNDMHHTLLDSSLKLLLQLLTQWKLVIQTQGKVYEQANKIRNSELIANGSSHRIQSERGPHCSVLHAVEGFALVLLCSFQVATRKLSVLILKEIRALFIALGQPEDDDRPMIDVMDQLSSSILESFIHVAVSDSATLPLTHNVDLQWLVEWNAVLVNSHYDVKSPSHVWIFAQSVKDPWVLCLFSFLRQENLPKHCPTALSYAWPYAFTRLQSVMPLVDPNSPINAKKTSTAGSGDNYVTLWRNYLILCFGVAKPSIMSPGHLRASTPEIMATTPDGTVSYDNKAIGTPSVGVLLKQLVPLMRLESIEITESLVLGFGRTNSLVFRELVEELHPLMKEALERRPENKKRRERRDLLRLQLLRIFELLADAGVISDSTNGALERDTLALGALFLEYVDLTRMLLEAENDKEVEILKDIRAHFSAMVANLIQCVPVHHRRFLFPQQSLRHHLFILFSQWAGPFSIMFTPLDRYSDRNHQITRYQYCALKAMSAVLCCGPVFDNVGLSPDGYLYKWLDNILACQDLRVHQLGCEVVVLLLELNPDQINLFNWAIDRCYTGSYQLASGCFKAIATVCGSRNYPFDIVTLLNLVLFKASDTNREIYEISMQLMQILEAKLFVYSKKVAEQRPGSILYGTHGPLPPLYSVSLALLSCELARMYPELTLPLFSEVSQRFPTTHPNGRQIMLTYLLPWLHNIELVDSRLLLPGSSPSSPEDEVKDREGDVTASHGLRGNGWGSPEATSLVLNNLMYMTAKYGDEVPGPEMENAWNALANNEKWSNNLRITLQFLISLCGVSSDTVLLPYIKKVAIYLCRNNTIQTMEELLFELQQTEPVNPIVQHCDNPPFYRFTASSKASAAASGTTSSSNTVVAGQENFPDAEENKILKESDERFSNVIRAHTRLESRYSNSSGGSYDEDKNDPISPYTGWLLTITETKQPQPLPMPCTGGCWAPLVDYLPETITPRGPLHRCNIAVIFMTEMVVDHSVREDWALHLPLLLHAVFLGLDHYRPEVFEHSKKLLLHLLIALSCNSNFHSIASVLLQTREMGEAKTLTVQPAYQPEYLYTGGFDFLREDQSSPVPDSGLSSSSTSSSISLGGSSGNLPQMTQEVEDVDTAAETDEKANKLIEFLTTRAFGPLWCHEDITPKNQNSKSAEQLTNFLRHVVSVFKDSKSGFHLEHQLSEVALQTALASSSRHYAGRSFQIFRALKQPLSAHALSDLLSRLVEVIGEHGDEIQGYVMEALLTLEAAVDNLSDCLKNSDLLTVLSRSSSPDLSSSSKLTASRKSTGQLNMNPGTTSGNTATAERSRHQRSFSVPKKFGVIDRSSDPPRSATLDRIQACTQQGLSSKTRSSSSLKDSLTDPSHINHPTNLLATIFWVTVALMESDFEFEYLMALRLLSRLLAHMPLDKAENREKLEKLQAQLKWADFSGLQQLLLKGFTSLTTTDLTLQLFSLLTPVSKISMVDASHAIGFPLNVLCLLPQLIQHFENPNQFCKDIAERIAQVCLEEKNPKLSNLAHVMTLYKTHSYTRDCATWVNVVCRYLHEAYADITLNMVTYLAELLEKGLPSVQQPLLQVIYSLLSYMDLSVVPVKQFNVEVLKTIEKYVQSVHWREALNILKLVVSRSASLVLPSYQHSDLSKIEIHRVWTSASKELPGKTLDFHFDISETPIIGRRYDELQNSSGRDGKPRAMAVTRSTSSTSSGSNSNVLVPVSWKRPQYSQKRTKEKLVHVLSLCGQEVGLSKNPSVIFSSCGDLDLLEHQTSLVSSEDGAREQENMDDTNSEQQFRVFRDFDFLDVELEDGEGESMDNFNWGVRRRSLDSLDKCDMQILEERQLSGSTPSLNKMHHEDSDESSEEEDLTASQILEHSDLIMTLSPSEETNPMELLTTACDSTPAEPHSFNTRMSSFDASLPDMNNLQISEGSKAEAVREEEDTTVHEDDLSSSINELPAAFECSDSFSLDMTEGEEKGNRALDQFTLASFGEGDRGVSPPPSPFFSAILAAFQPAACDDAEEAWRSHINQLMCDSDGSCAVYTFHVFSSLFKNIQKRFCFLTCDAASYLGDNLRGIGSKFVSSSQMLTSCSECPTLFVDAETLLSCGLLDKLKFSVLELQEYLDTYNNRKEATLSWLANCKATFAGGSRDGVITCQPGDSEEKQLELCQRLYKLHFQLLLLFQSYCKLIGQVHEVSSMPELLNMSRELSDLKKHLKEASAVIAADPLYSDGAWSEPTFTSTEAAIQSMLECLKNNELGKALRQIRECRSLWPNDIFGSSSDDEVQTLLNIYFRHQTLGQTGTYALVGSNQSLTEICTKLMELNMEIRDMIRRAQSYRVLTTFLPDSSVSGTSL
UniProt Q8IY81: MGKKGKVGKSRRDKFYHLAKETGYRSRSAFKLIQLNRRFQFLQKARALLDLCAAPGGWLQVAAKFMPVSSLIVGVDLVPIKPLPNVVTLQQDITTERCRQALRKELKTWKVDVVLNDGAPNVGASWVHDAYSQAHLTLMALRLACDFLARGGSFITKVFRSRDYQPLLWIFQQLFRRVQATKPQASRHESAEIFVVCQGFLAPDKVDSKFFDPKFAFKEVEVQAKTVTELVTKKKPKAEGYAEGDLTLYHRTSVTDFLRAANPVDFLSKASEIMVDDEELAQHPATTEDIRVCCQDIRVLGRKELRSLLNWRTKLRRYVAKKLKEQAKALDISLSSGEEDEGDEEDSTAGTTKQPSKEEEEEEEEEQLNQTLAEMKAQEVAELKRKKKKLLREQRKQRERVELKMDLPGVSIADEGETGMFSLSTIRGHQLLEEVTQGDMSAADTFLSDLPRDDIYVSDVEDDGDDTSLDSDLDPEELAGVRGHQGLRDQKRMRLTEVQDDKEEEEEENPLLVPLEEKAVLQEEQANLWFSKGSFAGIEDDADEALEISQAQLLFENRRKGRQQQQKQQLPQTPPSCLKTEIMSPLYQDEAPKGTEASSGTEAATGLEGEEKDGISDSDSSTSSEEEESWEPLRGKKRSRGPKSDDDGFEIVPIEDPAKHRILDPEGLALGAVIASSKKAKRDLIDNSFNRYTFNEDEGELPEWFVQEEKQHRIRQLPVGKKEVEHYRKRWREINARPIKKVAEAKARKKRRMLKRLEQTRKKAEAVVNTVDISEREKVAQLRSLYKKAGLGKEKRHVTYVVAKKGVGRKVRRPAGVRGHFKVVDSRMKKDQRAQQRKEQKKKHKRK
UniProt Q8IWF2: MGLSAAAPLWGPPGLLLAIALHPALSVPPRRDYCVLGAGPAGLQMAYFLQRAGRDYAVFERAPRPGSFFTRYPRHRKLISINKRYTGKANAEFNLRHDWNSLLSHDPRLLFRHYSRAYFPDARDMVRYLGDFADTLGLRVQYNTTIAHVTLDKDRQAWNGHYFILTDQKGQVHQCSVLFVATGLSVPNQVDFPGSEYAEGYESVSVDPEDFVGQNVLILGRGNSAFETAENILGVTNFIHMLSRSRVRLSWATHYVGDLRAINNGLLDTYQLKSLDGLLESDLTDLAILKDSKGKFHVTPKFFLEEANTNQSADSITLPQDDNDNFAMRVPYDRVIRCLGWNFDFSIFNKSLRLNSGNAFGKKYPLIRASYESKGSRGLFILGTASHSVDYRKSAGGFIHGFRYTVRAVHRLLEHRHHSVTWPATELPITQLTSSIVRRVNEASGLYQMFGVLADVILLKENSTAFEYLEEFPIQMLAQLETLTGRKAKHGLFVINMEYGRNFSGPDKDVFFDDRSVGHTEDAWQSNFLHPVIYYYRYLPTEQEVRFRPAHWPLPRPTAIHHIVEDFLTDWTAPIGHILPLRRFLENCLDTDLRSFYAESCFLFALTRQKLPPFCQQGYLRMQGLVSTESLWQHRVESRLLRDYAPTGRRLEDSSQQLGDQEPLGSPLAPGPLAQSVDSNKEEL
UniProt Q9NXN4: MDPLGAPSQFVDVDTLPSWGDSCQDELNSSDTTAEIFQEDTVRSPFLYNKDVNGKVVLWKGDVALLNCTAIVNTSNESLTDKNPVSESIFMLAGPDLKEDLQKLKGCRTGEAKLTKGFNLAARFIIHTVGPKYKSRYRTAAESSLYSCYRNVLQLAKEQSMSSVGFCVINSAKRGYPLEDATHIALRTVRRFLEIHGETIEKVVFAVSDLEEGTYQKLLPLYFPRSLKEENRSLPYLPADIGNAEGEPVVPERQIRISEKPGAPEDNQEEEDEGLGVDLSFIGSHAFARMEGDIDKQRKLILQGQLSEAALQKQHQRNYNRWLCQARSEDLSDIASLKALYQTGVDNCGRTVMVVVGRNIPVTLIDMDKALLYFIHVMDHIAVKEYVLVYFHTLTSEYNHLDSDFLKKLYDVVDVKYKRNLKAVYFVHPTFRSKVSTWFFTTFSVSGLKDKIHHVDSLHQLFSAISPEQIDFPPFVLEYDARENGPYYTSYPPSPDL
UniProt Q8WXI9: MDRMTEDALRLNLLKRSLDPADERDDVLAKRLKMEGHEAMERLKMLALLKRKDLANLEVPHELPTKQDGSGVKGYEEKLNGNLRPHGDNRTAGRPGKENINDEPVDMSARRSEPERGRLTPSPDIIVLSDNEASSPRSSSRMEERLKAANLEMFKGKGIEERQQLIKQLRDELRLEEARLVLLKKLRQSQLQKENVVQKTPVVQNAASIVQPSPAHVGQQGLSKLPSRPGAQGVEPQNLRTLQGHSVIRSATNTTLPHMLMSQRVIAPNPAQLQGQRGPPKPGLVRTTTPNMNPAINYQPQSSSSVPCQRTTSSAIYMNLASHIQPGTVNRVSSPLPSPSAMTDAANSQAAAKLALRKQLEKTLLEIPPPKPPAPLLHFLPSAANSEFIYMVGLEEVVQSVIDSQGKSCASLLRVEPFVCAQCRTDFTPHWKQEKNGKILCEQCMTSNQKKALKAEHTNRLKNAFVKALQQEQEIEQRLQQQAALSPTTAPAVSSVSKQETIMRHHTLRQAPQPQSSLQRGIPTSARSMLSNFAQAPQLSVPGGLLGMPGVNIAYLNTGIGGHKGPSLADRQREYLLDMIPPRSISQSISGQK
UniProt Q8IVP5: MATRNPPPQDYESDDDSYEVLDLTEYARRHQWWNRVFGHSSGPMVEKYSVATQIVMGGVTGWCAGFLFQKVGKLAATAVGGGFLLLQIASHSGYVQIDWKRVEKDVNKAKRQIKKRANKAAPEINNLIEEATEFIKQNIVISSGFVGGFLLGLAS
UniProt P23769: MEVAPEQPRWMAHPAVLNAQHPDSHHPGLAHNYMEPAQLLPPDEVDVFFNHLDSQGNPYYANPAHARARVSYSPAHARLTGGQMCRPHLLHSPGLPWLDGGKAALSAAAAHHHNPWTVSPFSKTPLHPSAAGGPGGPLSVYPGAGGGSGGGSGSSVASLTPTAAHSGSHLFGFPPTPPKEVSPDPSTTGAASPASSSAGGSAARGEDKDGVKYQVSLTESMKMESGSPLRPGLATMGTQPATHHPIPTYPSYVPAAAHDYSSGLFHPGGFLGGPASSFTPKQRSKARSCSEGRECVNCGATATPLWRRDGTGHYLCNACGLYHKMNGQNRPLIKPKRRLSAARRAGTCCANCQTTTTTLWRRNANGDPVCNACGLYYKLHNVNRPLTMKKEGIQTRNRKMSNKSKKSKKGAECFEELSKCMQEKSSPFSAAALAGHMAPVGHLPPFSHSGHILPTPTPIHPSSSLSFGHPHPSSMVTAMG

Experiments:
Assay in all cases: log2 fold change, soluble protein after heating vs DMSO (PISA); higher = thermal stabilisation; K562 cells, 10 uM, 30 min; active = over 0.2 and 3.5 SD of the protein, either way, in both replicates (recomputed)
[1] = compound: CS(=O)(=O)c1ccc(-c2cnc(N)c(C(=O)Nc3ccccc3)n2)cc1
Procedure, shortened: (§1)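 K562 cells at 2×10^6 cells/mL were treated for 30 min with 10 μM compound, and aliquots were heated for 3 min over 48°C-58°C before pooling. Extraction used PBS with 0.5% NP-40 at 4°C, and soluble protein was the supernatant after 21,000xg for 90 min, measured by TMTpro 16plex LC-MS/MS with channel sums equalised. Thermal stability values, relative to control samples and from duplicates, are log2 fold changes.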

[2] = compound: C[C@@H](Oc1cc(-c2cnn(C3CCNCC3)c2)cnc1N)c1c(Cl)ccc(F)c1Cl [crizotinib]
Procedure, shortened: as §1

[3] = compound: C[C@@H]1COCCN1C2=NC(=NC(=C2)C3(CC3)S(=O)(=O)C)C4=C5C=CNC5=CC=C4
Procedure, shortened: as §1

[4] = compound: C[C@H](C1=CC=C(C=C1)C(=O)NC2=C3C=CNC3=NC=C2)N
Procedure, shortened: as §1

[5] = compound: Cc1cc(Nc2cc(CN3CCOCC3)c3nc(C)c(Cc4ccc(Cl)cc4F)n3n2)n[nH]1 [gandotinib]
Procedure, shortened: as §1

[6] = compound: Cc1cc(SCc2sc(-c3ccc(C(F)(F)F)cc3)nc2C)ccc1OCC(=O)O
Procedure, shortened: as §1

[7] = compound: Cc1ccc(-n2nc(C(C)(C)C)cc2NC(=O)Nc2ccc(OCCN3CCOCC3)c3ccccc23)cc1 [doramapimod]
Procedure, shortened: as §1

[8] = compound: Cc1ccc(NC(=O)c2ccc(CN3CC[C@H](N(C)C)C3)c(C(F)(F)F)c2)cc1Nc1nccc(-c2cncnc2)n1 [bafetinib]
Procedure, shortened: as §1

[9] = compound: Cc1cccc(CC(=O)N2CCc3c2ccc(-c2cn(C)c4ncnc(N)c24)c3F)n1
Procedure, shortened: as §1

[10] = compound: Cc1cn(-c2cc(NC(=O)c3ccc(C)c(Nc4nccc(-c5cccnc5)n4)c3)cc(C(F)(F)F)c2)cn1 [nilotinib]
Procedure, shortened: as §1

[11] = compound: Cc1nc(Nc2n[nH]c3c2CN(C(=O)N[C@H](CN(C)C)c2ccccc2)C3(C)C)c2sccc2n1
Procedure, shortened: as §1

[12] = compound: Cc1nc(Nc2ncc(C(=O)Nc3c(C)cccc3Cl)s2)cc(N2CCN(CCO)CC2)n1 [dasatinib]
Procedure, shortened: as §1

[13] = compound: Cc1ncc(-c2ccnc(Nc3ccc(S(C)(=O)=O)cc3)n2)n1C(C)C
Procedure, shortened: as §1

[14] = compound: Cn1cc(-c2ccc3c(c2)CCN3C(=O)Cc2cccc(C(F)(F)F)c2)c2c(N)ncnc21
Procedure, shortened: as §1

[15] = compound: Cn1cncc1[C@@](N)(c1ccc(Cl)cc1)c1ccc2c(c1)c(-c1cccc(Cl)c1)cc(=O)n2C [tipifarnib]
Procedure, shortened: as §1

[16] = compound: FC(F)(F)c1ccc(/C=C/c2nc(COc3ccc(CCCCn4ccnn4)cc3)co2)cc1 [mubritinib]
Procedure, shortened: as §1

[17] = compound: Cc1cc(Nc2cc(N3CCN(C)CC3)nc(Sc3ccc(NC(=O)C4CC4)cc3)n2)n[nH]1 [tozasertib]
Procedure, shortened: as §1

[18] = compound: C[C@H](Nc1ncnc2nc[nH]c12)c1cc2cccc(Cl)c2c(=O)n1-c1ccccc1 [duvelisib]
Procedure, shortened: as §1

[19] = compound: Cc1ccc(C(=O)N(CCCN)[C@@H](c2nc3cc(Cl)ccc3c(=O)n2Cc2ccccc2)C(C)C)cc1 [ispinesib]
Procedure, shortened: as §1

[20] = compound: Cn1cc(-c2ccc3nnc(C(F)(F)c4ccc5ncccc5c4)n3n2)cn1
Procedure, shortened: as §1

Row | Target | log2 fold change [1] | log2 fold change [2] | log2 fold change [3] | log2 fold change [4] | log2 fold change [5] | log2 fold change [6] | log2 fold change [7] | log2 fold change [8] | log2 fold change [9] | log2 fold change [10] | log2 fold change [11] | log2 fold change [12] | log2 fold change [13] | log2 fold change [14] | log2 fold change [15] | log2 fold change [16] | log2 fold change [17] | log2 fold change [18] | log2 fold change [19] | log2 fold change [20]
1 | FRA10AC1 isoform 3 (UniProt Q70Z53) | inactive: -0.082 | inactive: 0.201 | inactive: 0.059 | inactive: 0.029 | inactive: 0.189 | inactive: -0.116 | inactive: -0.044 | inactive: -0.087 | inactive: 0.018 | inactive: -0.034 | inactive: -0.039 | inactive: -0.051 | inactive: 0.085 | inactive: -0.076 | inactive: -0.055 | inactive: 0.011 |  |  |  | 
2 | FRY (UniProt Q5TBA9) | inactive: 0.045 |  | inactive: 0.003 |  | inactive: -0.275 |  |  | inactive: 0.112 | inactive: -0.247 |  |  |  |  |  |  | inactive: 0.145 | inactive: 0.068 |  |  | 
3 | FZD5 (UniProt Q13467) | inactive: 0.098 |  | inactive: -0.069 |  |  |  |  | inactive: -0.186 |  |  |  |  |  |  | inactive: 0.015 | inactive: -0.113 | inactive: -0.205 |  |  | 
4 | FTSJ3 (UniProt Q8IY81) | inactive: -0.008 |  |  | inactive: 0.389 | inactive: 0.091 | inactive: 0.154 |  |  | inactive: 0.073 |  |  | inactive: 0.388 |  | inactive: -0.308 | inactive: 0.298 |  |  | inactive: 0.02 | inactive: -0.184 | inactive: 0.029
5 | GDE1 (UniProt Q9NZC3) | inactive: 0.033 | inactive: 0.063 | inactive: 0.077 | inactive: -0.087 |  | inactive: -0.067 | inactive: 0.074 | inactive: 0.081 |  | inactive: 0.03 | inactive: 0.054 | inactive: 0.028 | inactive: -0.032 | inactive: 0.106 | inactive: -0.001 | inactive: 0.01 |  |  | inactive: 0.051 | inactive: -0.029
6 | GBE1 (UniProt Q04446) |  | active: -0.565 | inactive: -0.054 | inactive: 0.193 |  | inactive: 0.094 | inactive: -0.02 | inactive: 0.067 |  |  |  | inactive: -0.275 |  | inactive: -0.004 | inactive: -0.608 | inactive: 0.181 |  |  | inactive: -0.286 | inactive: 0.059
7 | GAA (UniProt P10253) | inactive: -0.081 | inactive: 0.083 | inactive: -0.068 |  | inactive: 0.101 |  | inactive: -0.188 |  | inactive: -0.072 |  |  |  |  |  |  | inactive: -0.021 | inactive: -0.071 |  |  | 
8 | FOXRED2 (UniProt Q8IWF2) |  | inactive: -0.092 | inactive: -0.045 | inactive: 0.112 |  | inactive: 0.056 | inactive: 0.128 |  |  |  |  | inactive: 0.014 |  | inactive: -0.078 | inactive: 0.006 | inactive: -0.249 | inactive: -0.026 | inactive: -0.013 | inactive: 0.066 | inactive: -0.059
9 | GGA2 (UniProt Q9UJY4) | inactive: 0.038 | inactive: -0.089 | inactive: 0.032 | inactive: 0.036 |  | inactive: 0.015 | inactive: 0.009 | inactive: 0.024 |  | inactive: -0.031 | inactive: 0.065 | inactive: 0.075 | inactive: -0.013 | inactive: 0.024 | inactive: -0.003 | inactive: 0.014 |  |  | inactive: -0.177 | inactive: 0.034
10 | GDAP2 (UniProt Q9NXN4) | inactive: 0.374 | inactive: -0.103 | inactive: -0.029 |  |  | inactive: 0.065 | inactive: 0.119 |  |  | inactive: 0.094 | inactive: -0.168 | inactive: 0.12 | inactive: 0.536 |  |  | inactive: -0.25 |  | inactive: 0.216 |  | 
11 | GALNT7 (UniProt H0YAH3) |  | inactive: -0.055 | inactive: -0.259 | inactive: 0.271 |  |  | inactive: 0.104 | inactive: -0.088 |  |  |  |  |  | inactive: 0.134 |  |  |  |  |  | 
12 | FOXJ3 (UniProt Q9UPW0) |  | inactive: -0.038 | inactive: 0.023 | inactive: -0.035 |  | inactive: -0.039 | inactive: -0.037 | inactive: -0.147 |  | inactive: 0.103 | inactive: -0.237 | inactive: -0.028 | inactive: -0.2 | inactive: 0.025 | inactive: 0.093 | inactive: -0.108 | inactive: -0.003 | inactive: 0.099 | inactive: 0.055 | inactive: -0.041
13 | GCFC2 (UniProt P16383) | inactive: 0.012 |  | inactive: 0.179 | inactive: 0.043 | inactive: 0.006 | inactive: 0.037 |  | inactive: 0 | inactive: -0.004 | inactive: 0.107 | inactive: 0.005 | inactive: -0.035 | inactive: -0.082 | inactive: -0.042 | inactive: 0.058 | inactive: -0.041 | inactive: 0.017 | inactive: -0.022 | inactive: -0.014 | inactive: -0.006
14 | FYB1 isoform 3 (UniProt O15117) | inactive: -0.025 | inactive: -0.11 | inactive: 0.046 |  | inactive: 0.057 | inactive: 0.067 | inactive: 0.021 | inactive: -0.019 | inactive: -0.071 | inactive: -0.036 | inactive: -0.026 | inactive: -0.021 | inactive: -0.077 |  | inactive: -0.025 | inactive: 0.085 |  | active: -0.344 | inactive: -0.083 | inactive: -0.156
15 | FUOM (UniProt A2VDF0) | inactive: 0.053 | inactive: 0.023 |  | inactive: 0.146 |  |  | inactive: 0.027 | inactive: -0.058 |  | inactive: 0.064 | inactive: 0.004 |  | inactive: -0.203 | inactive: 0.29 |  | inactive: 0.201 | inactive: -0.033 |  |  | 
16 | GALNT6 (UniProt Q8NCL4) | inactive: 0.045 | inactive: -0.171 | inactive: -0.011 |  |  | inactive: -0.105 | inactive: 0 | inactive: -0.043 |  | inactive: 0.009 | inactive: -0.019 | inactive: -0.112 | inactive: 0.073 |  | inactive: 0.095 | inactive: 0.154 | inactive: 0.013 | inactive: 0.019 | inactive: -0.03 | inactive: -0.075
17 | FXYD5 (UniProt Q96DB9) | inactive: -0.04 | inactive: 0.106 |  | inactive: -0.067 | inactive: 0.183 | inactive: 0.011 | inactive: 0.26 |  | inactive: -0.375 |  |  | inactive: -0.057 |  | inactive: 0.025 | inactive: 0 |  |  | inactive: 0.169 | inactive: 0.036 | inactive: 0.118
18 | GCC2 (UniProt Q8IWJ2) | inactive: 0.04 | inactive: -0.01 | inactive: -0.104 | inactive: 0.246 | inactive: 0.081 | inactive: 0.048 | inactive: 0.136 | inactive: 0.033 | inactive: -0.045 | inactive: -0.14 | inactive: -0.071 | inactive: -0.011 | inactive: 0.119 | inactive: -0.032 | inactive: 0.051 | inactive: -0.088 |  |  | inactive: -0.173 | inactive: 0.02
19 | GATAD2B (UniProt Q8WXI9) | inactive: -0.102 | inactive: -0.161 | inactive: -0.021 |  |  |  | inactive: 0.152 |  |  |  |  |  |  |  | inactive: 0.023 | inactive: 0.047 | inactive: 0.125 |  | inactive: -0.122 | inactive: 0.088
20 | FUNDC1 (UniProt Q8IVP5) | inactive: 0.046 |  |  |  |  |  |  | inactive: -0.169 |  |  |  |  |  |  | inactive: 0 | inactive: 0.066 |  |  |  | 
21 | FUT8 (UniProt Q9BYC5) | inactive: 0.018 | inactive: -0.235 | inactive: 0.077 | inactive: -0.011 | inactive: 0.034 | inactive: 0.178 | inactive: -0.017 | inactive: -0.062 | inactive: -0.042 | inactive: -0.008 | inactive: 0.006 | inactive: 0.031 | inactive: 0.054 | inactive: -0.276 |  | inactive: -0.037 |  |  | inactive: -0.148 | inactive: 0.022
22 | GABPB1 (UniProt Q06547) | inactive: 0.141 | inactive: -0.052 |  |  |  |  | inactive: 0.051 | inactive: -0.058 |  |  |  |  |  |  | inactive: -0.016 |  | inactive: 0.111 |  | inactive: -0.246 | inactive: 0.031
23 | GAK (UniProt O14976) | inactive: 0.49 | inactive: 0.115 | inactive: -0.081 | inactive: 1.26 | inactive: 0.02 | inactive: -0.121 | inactive: 0.206 |  | inactive: -0.072 | inactive: 0.257 | inactive: 0.792 | inactive: 1.31 | inactive: 0.232 | inactive: -0.07 | inactive: -0.238 | inactive: 0.005 |  |  | inactive: -0.157 | inactive: -0.031
24 | GATA2 (UniProt P23769) | inactive: 0.115 |  |  | inactive: -0.16 | inactive: 0.088 | inactive: -0.161 |  | inactive: -0.011 | inactive: 0.089 | inactive: 0.057 | inactive: -0.075 | inactive: 0.087 | inactive: 0.057 | inactive: -0.138 | inactive: -0.026 | inactive: -0.065 |  | inactive: -0.12 | inactive: -0.068 | inactive: -0.014

Already shown: an excerpt of the list.
Row | Target | log2 fold change [1] | log2 fold change [2] | log2 fold change [3] | log2 fold change [4] | log2 fold change [5] | log2 fold change [6] | log2 fold change [7] | log2 fold change [8] | log2 fold change [9] | log2 fold change [10] | log2 fold change [11] | log2 fold change [12] | log2 fold change [13] | log2 fold change [14] | log2 fold change [15] | log2 fold change [16] | log2 fold change [17] | log2 fold change [18] | log2 fold change [19] | log2 fold change [20]
14 | FYB1 isoform 3 (UniProt O15117) | inactive: -0.025 | inactive: -0.11 | inactive: 0.046 |  | inactive: 0.057 | inactive: 0.067 | inactive: 0.021 | inactive: -0.019 | inactive: -0.071 | inactive: -0.036 | inactive: -0.026 | inactive: -0.021 | inactive: -0.077 |  | inactive: -0.025 | inactive: 0.085 |  | active: -0.344 | inactive: -0.083 | inactive: -0.156
15 | FUOM (UniProt A2VDF0) | inactive: 0.053 | inactive: 0.023 |  | inactive: 0.146 |  |  | inactive: 0.027 | inactive: -0.058 |  | inactive: 0.064 | inactive: 0.004 |  | inactive: -0.203 | inactive: 0.29 |  | inactive: 0.201 | inactive: -0.033 |  |  | 
